# Data from the supplement of paper PMC11732987, “Enantioselective OTUD7B fragment discovery through chemoproteomics screening and high-throughput optimisation” (Communications Chemistry, 2025).
# Chains of the proteins cited; added tags and fusions are not shown. Lines headed by an entry give the natural chain unless they say otherwise; changes in a name come on top. Residues count along the entry.
# UniProt O14795: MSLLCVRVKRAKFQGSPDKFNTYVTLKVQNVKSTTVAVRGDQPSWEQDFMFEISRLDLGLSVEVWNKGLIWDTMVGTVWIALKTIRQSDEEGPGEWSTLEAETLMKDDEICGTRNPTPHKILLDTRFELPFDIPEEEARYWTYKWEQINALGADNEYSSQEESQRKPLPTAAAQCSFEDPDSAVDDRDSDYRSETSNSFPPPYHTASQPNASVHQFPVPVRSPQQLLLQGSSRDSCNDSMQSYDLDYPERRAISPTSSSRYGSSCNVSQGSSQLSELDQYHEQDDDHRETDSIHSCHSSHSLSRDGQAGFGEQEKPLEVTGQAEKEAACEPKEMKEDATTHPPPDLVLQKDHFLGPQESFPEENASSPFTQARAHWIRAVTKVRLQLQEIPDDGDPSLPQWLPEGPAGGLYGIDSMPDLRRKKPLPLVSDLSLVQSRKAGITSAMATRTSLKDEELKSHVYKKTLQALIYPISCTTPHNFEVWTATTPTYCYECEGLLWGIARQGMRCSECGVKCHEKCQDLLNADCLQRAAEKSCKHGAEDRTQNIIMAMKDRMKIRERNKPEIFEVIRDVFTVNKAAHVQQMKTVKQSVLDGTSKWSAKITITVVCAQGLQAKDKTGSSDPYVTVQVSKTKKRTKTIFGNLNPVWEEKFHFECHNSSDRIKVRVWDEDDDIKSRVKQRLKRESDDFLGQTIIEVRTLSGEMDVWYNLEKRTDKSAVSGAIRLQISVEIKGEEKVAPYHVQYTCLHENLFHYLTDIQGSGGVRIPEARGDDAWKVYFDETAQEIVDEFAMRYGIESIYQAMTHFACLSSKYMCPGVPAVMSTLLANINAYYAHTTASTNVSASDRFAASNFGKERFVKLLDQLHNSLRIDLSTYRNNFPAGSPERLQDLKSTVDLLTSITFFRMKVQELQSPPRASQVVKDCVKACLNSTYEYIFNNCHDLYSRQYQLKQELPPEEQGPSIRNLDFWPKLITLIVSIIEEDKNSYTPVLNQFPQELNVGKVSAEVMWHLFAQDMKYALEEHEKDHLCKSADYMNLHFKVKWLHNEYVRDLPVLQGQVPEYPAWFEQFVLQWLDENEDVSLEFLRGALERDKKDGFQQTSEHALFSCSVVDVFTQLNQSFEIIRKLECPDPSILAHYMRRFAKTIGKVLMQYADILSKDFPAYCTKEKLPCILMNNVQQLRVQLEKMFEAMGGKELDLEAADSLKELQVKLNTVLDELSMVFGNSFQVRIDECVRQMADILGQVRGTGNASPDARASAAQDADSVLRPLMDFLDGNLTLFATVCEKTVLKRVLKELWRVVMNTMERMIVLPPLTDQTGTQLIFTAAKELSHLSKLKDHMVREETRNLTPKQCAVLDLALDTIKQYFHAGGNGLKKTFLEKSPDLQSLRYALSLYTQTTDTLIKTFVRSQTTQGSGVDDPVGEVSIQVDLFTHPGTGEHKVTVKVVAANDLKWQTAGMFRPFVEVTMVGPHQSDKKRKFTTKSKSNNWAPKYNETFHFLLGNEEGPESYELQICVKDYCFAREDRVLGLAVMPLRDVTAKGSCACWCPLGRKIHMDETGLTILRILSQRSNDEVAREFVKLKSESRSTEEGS
# UniProt Q9NWZ5: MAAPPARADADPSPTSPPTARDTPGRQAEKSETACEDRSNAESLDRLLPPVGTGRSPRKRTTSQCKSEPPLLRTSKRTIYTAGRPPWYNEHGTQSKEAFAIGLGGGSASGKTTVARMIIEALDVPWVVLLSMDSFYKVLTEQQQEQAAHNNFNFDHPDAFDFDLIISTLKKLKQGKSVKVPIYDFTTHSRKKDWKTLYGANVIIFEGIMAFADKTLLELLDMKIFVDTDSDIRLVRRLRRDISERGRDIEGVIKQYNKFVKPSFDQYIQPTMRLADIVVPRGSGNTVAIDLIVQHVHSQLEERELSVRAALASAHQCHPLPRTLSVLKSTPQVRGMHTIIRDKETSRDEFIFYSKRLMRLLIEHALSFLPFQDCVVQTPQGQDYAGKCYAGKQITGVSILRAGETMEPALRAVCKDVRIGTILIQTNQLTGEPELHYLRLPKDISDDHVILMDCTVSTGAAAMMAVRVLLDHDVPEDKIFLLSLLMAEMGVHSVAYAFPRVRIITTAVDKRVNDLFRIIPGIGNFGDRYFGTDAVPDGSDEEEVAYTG
# UniProt Q93008, whole entry, looked up: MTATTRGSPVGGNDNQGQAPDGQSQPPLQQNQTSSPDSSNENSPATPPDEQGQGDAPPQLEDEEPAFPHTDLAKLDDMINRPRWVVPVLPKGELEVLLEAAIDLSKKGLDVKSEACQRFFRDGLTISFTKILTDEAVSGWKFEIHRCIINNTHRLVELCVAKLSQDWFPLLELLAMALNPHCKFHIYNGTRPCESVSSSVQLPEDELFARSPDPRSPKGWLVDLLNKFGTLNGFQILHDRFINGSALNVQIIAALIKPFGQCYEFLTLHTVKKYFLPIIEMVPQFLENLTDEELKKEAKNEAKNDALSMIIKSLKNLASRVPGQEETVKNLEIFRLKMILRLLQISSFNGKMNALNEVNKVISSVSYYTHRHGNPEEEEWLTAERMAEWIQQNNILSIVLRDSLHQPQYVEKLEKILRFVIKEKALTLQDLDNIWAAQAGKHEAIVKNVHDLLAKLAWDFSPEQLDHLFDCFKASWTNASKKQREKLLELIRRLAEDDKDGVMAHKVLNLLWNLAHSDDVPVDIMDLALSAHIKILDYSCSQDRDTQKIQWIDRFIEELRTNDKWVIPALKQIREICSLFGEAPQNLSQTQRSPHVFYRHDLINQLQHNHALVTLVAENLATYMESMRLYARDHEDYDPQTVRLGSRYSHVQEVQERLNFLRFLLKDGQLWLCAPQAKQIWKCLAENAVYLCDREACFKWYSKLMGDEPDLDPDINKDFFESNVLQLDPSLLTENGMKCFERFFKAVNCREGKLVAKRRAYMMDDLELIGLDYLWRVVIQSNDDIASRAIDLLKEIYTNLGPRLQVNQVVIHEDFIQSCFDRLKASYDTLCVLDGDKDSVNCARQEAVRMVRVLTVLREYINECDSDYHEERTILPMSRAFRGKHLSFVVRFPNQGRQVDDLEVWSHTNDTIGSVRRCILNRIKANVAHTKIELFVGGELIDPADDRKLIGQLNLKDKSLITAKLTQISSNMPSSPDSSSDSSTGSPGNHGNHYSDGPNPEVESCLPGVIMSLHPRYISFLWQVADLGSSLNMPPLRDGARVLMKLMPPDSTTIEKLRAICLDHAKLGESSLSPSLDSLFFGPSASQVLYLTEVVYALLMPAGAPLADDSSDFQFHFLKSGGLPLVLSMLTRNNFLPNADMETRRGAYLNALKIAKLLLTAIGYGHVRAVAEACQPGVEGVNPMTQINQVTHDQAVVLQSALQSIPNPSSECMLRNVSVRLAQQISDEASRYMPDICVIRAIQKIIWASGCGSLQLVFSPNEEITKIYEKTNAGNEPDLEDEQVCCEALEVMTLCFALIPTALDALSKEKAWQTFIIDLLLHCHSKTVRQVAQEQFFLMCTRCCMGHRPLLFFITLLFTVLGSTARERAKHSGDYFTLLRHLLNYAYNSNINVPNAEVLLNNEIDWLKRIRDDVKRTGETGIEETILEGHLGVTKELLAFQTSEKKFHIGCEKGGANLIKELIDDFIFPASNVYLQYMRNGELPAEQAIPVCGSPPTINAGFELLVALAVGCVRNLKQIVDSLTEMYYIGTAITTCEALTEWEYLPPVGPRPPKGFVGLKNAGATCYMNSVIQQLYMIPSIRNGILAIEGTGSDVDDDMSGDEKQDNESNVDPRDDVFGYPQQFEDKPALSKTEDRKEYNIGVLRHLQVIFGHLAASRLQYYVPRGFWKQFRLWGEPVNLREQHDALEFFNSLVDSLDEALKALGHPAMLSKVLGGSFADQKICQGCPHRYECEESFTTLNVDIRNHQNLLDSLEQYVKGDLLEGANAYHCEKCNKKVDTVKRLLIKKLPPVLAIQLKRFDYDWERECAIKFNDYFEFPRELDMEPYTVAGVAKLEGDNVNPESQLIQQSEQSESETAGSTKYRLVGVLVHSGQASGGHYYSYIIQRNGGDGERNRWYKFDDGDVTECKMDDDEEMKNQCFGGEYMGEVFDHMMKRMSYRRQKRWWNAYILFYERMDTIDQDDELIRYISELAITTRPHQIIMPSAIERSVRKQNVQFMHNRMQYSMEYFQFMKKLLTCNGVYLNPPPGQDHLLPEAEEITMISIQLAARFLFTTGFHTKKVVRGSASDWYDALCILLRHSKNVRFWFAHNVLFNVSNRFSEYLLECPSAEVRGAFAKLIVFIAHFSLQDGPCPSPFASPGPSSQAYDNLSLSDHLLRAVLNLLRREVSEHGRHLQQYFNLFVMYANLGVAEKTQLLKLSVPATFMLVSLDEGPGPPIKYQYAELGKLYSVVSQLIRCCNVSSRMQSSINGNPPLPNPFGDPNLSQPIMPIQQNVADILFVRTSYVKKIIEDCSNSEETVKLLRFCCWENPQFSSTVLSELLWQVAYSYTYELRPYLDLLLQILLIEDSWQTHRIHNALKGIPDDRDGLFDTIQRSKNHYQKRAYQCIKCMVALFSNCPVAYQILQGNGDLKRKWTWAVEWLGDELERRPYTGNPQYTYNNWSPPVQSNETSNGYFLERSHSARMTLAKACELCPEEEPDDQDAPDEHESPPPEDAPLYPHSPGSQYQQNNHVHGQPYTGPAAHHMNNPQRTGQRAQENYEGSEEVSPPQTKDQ
# UniProt O95071, 605-632: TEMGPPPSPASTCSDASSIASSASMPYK
# UniProt P07919: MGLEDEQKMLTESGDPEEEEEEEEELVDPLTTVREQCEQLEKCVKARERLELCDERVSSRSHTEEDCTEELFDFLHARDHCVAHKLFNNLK
# UniProt Q9Y6I4: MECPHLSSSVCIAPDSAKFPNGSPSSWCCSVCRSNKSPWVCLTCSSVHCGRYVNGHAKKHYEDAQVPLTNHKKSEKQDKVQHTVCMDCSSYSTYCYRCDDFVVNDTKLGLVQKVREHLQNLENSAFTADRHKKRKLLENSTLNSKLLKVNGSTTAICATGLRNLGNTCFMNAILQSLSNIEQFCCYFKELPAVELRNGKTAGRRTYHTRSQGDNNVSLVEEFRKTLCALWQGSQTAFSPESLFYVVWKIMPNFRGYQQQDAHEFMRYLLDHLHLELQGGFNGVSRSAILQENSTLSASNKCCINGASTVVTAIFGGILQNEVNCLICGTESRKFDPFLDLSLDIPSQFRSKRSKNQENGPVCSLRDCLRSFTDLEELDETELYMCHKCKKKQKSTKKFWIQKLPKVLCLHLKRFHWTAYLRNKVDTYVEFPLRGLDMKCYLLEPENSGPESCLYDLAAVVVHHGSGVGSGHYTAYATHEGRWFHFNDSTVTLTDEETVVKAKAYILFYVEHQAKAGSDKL
# UniProt P40818: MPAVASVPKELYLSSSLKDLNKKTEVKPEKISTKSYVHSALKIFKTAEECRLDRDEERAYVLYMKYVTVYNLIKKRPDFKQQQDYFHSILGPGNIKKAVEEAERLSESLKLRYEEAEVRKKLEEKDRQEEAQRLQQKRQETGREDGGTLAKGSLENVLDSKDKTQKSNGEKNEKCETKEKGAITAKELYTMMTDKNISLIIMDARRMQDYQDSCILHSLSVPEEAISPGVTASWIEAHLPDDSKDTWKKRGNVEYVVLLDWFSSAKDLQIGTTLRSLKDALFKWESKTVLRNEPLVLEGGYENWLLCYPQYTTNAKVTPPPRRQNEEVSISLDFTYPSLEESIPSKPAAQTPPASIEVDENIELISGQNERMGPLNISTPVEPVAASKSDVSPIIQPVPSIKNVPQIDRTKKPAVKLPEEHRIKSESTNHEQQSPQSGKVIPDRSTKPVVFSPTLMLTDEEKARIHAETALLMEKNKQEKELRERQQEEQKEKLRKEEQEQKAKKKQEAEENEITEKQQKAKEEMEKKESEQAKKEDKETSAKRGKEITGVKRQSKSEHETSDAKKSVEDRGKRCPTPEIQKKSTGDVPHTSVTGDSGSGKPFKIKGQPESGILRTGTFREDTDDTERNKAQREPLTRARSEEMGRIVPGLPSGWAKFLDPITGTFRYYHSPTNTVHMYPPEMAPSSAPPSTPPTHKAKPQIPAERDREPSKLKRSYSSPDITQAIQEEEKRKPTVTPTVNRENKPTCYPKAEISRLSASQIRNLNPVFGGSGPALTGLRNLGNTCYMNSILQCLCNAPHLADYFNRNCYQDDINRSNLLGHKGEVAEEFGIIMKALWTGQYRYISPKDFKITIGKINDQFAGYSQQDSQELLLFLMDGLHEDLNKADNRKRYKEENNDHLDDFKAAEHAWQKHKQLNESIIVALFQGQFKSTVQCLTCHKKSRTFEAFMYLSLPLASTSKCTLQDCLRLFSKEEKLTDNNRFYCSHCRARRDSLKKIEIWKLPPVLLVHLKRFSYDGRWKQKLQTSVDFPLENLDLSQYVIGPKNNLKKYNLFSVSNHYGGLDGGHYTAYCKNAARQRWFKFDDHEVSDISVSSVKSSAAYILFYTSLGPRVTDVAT
# UniProt Q16831, 139-164: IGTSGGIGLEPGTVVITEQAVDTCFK
# The other results are listed elsewhere or left out. The data scatter; read single values as rough.
# Compound: ClCC(=O)N[C@@H]1CCCc2ccccc12
# Experiment: log2 mean competition ratio of IA-DTB cysteine labelling (DMSO/compound) (log2 ratio); higher = stronger cysteine engagement by compound
# Conditions: 50 µM; treatment time: 4 h; cell line lysate: HEK293T
# Procedure: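 IA-DTB competitive cysteine chemoproteomics in HEK293T RIPA lysate. Lysates were treated with compound 29 or 30 at 50 or 200 µM for 4 h, then IA-DTB (500 µM, 1 h), trypsin-digested, NeutrAvidin-enriched and analysed by diaPASEF. Competition ratio = intensity DMSO / intensity compound (n=4 treated, n=64 DMSO); binding: mean log2 CR ≥ 1 and p ≤ 0.05 plus QC filters. Target is the cysteine site.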
row,Target,log2 mean competition ratio
1,UNC13B C655 (UniProt O14795),0.287
2,UFSP2 C302 (UniProt Q9NUQ7),-0.201
3,USP34 C1330 (UniProt Q70CQ2),0.0998
4,UCKL1 C35 (UniProt Q9NWZ5),-0.144
5,USP9X C1237 (UniProt Q93008),0.0599
6,USP47 C856 (UniProt Q96K76),-0.0758
7,UBR5 C617 (UniProt O95071),-0.0425
8,UNC45A C927 (UniProt Q9H3U1),-0.127
9,USP9X C1908 (UniProt Q93008),-0.113
10,VAV3 C187 (UniProt Q9UKW4),-0.0502
11,USO1 C303 (UniProt O60763),-0.0502
12,VDAC3 C36 (UniProt Q9Y277),0.0146
13,UQCRH C37 (UniProt P07919),-0.0544
14,VCP C522 (UniProt P55072),0.636
15,USP3 C362 (UniProt Q9Y6I4),-0.0208
16,UHRF1 C305 (UniProt Q96T88),-0.17
17,URB2 C702 (UniProt Q14146),-0.00645
18,USP9X C864 (UniProt Q93008),-0.0192
19,USP8 C809 (UniProt P40818),0.0922
20,UTP20 C345 (UniProt O75691),-0.13
21,UNC45A C118 (UniProt Q9H3U1),-0.181
22,UNC45B C207,0.259
23,URI1 C44 (UniProt O94763),-0.147
24,UPP1 C162 (UniProt Q16831),0.0324
25,USP7 C334,-0.124
26,USP16 C618 (UniProt Q9Y5T5),-0.0158
27,UQCRH C53 (UniProt P07919),-0.108

# Reprinted, entries 22 to 23
row,Target,log2 mean competition ratio
22,UNC45B C207,0.259
23,URI1 C44 (UniProt O94763),-0.147
